PubChem BioAssay AID1224830, NIAID, 2016

- Test: 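Genes whose knock-down alters the TNF-alpha reporter response to LPS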 (primary screen)
- Cells: human THP-1 monocytic leukaemia cells, TNF dual-luciferase reporter clone, PMA-differentiated to macrophage-like cells
- Reagents: siRNA pool against human genes, 50 nM
- Duration: LPS for 4 h, given about 3 days after siRNA transfection
- Conditions: bacterial LPS (TLR4 ligand), 10 ng/ml
- Read-out: 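Ratio of firefly to renilla light, scaled to the plate median and expressed as a robust z-score per replicate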
- Reading the numbers: TNF reporter robust z-score: higher = stronger TNF reporter response to LPS
- Call rule: 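Each well counts as active if its z-score is over 2.8 or under -1.5; controls are left without a call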
In all, the deposit lists about 18,000 reagents; this is a part drawn at random. Over the whole deposit, about 2,900 (16%) got an active call. 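Calls are made per well; low scores hint the gene aids the LPS response, high scores that it dampens it.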 The numbers tell different reagents against one gene apart. Repeated entries: four replicate wells of each siRNA pool.

What is on record for DENND1B (DENN domain containing 1B) #1?
TNF reporter robust z-score: 1.04; outcome: inactive

Which result is listed for DENND1B (DENN domain containing 1B) #1?
TNF reporter robust z-score: 1.47; outcome: inactive

What did the screen give for DENND1B (DENN domain containing 1B) #1?
TNF reporter robust z-score: 0.51; outcome: inactive

For DENND1B (DENN domain containing 1B) #1, what was measured?
TNF reporter robust z-score: -0.43; outcome: inactive

With DENND1B (DENN domain containing 1B) #2, how do the results read?
TNF reporter robust z-score: 0.96; outcome: inactive

How did the screen score DENND1B (DENN domain containing 1B) #2?
TNF reporter robust z-score: 0.01; outcome: inactive

What did the screen give for DENND1B (DENN domain containing 1B) #2?
TNF reporter robust z-score: 0.37; outcome: inactive

For DENND1B (DENN domain containing 1B) #2, how do the results read?
TNF reporter robust z-score: -0.24; outcome: inactive

With BTN2A1 (butyrophilin subfamily 2 member A1), what does the deposit list?
TNF reporter robust z-score: -0.86; outcome: inactive

With BTN2A1 (butyrophilin subfamily 2 member A1), what was measured?
TNF reporter robust z-score: 0.1; outcome: inactive

Which result is listed for BTN2A1 (butyrophilin subfamily 2 member A1)?
TNF reporter robust z-score: 0.25; outcome: inactive

What did the screen give for BTN2A1 (butyrophilin subfamily 2 member A1)?
TNF reporter robust z-score: 0.55; outcome: inactive

What is on record for SDCBP (syndecan binding protein)?
TNF reporter robust z-score: 0.23; outcome: inactive

With SDCBP (syndecan binding protein), what was measured?
TNF reporter robust z-score: 0.95; outcome: inactive

Which result is listed for SDCBP (syndecan binding protein)?
TNF reporter robust z-score: 0.15; outcome: inactive

Which result is listed for SDCBP (syndecan binding protein)?
TNF reporter robust z-score: 0.42; outcome: inactive

With SDS (serine dehydratase), what does the deposit list?
TNF reporter robust z-score: -0.08; outcome: inactive

What did the screen give for SDS (serine dehydratase)?
TNF reporter robust z-score: 0.53; outcome: inactive

What is on record for SDS (serine dehydratase)?
TNF reporter robust z-score: 1.17; outcome: inactive

How did the screen score SDS (serine dehydratase)?
TNF reporter robust z-score: 1.59; outcome: inactive

How did the screen score FSHR (follicle stimulating hormone receptor)?
TNF reporter robust z-score: 0.64; outcome: inactive

What did the screen give for FSHR (follicle stimulating hormone receptor)?
TNF reporter robust z-score: 0.95; outcome: inactive

With FSHR (follicle stimulating hormone receptor), what was measured?
TNF reporter robust z-score: 1; outcome: inactive

How did the screen score FSHR (follicle stimulating hormone receptor)?
TNF reporter robust z-score: 1.73; outcome: inactive

Reformatted: 5 of the entries above.
{"gene knocked down":"DENND1B (DENN domain containing 1B)","reagent":2,"TNF reporter robust z-score":0.37,"outcome":"inactive"}
{"gene knocked down":"DENND1B (DENN domain containing 1B)","reagent":2,"TNF reporter robust z-score":-0.24,"outcome":"inactive"}
{"gene knocked down":"BTN2A1 (butyrophilin subfamily 2 member A1)","reagent":1,"TNF reporter robust z-score":-0.86,"outcome":"inactive"}
{"gene knocked down":"BTN2A1 (butyrophilin subfamily 2 member A1)","reagent":1,"TNF reporter robust z-score":0.1,"outcome":"inactive"}
{"gene knocked down":"BTN2A1 (butyrophilin subfamily 2 member A1)","reagent":1,"TNF reporter robust z-score":0.25,"outcome":"inactive"}

The listing continues.
Which result is listed for GNAI3 (G protein subunit alpha i3)?
TNF reporter robust z-score: -1.79; outcome: active

Which result is listed for GNAI3 (G protein subunit alpha i3)?
TNF reporter robust z-score: -1.31; outcome: inactive

For GNAI3 (G protein subunit alpha i3), what was measured?
TNF reporter robust z-score: -1.58; outcome: active

With GNAI3 (G protein subunit alpha i3), how do the results read?
TNF reporter robust z-score: -1.32; outcome: inactive

With KRTAP9-3 (keratin associated protein 9-3), how do the results read?
TNF reporter robust z-score: 0.18; outcome: inactive

What did the screen give for KRTAP9-3 (keratin associated protein 9-3)?
TNF reporter robust z-score: 0.37; outcome: inactive

What did the screen give for KRTAP9-3 (keratin associated protein 9-3)?
TNF reporter robust z-score: 0.63; outcome: inactive

With KRTAP9-3 (keratin associated protein 9-3), what does the deposit list?
TNF reporter robust z-score: 0.48; outcome: inactive

For CLCC1 (chloride channel CLIC like 1), what was measured?
TNF reporter robust z-score: -0.33; outcome: inactive

What did the screen give for CLCC1 (chloride channel CLIC like 1)?
TNF reporter robust z-score: 0.02; outcome: inactive

For CLCC1 (chloride channel CLIC like 1), what was measured?
TNF reporter robust z-score: -0.47; outcome: inactive

For CLCC1 (chloride channel CLIC like 1), what does the deposit list?
TNF reporter robust z-score: 0; outcome: inactive

For SLC10A1, what was measured?
TNF reporter robust z-score: 0.5; outcome: inactive

Which result is listed for SLC10A1?
TNF reporter robust z-score: -0.81; outcome: inactive

Which result is listed for SLC10A1?
TNF reporter robust z-score: 0.96; outcome: inactive

What did the screen give for SLC10A1?
TNF reporter robust z-score: 0.67; outcome: inactive

For SLC25A30, what does the deposit list?
TNF reporter robust z-score: -1.69; outcome: active

What did the screen give for SLC25A30?
TNF reporter robust z-score: -0.86; outcome: inactive

How did the screen score SLC25A30?
TNF reporter robust z-score: -1.29; outcome: inactive

For SLC25A30, how do the results read?
TNF reporter robust z-score: -1.12; outcome: inactive

For DOCK9 (dedicator of cytokinesis 9), how do the results read?
TNF reporter robust z-score: 4.87; outcome: active

What did the screen give for DOCK9 (dedicator of cytokinesis 9)?
TNF reporter robust z-score: 1.35; outcome: inactive

For DOCK9 (dedicator of cytokinesis 9), what was measured?
TNF reporter robust z-score: -0.55; outcome: inactive

What is on record for DOCK9 (dedicator of cytokinesis 9)?
TNF reporter robust z-score: 0.02; outcome: inactive
